Taken from: PubChem BioAssay AID743121 (NCATS, 2013)
In all, the deposit lists about 26,000 reagents; shown is a part drawn at random. In the full data, 167 (0.63%) got an active call. 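Calls are per gene from RSA p-values that are not deposited; an individual active-marked siRNA can sensitise only weakly.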 Entries without a mark were called inactive. Not all columns of the deposit are shown.

Purpose: 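Partners whose loss is lethal together with topoisomerase I blockade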 (primary screen)
System: MDA-MB-231 cells, a human breast cancer line
Reagents: single siRNA against human genes, 20 nM siRNA (0.8 pmol per well)
Time to read-out: 120 h (drug added 48 h after transfection, read 72 h later)
Treatment: camptothecin 20 nM (about EC30) for 72 h; vehicle 0.1% DMSO in parallel plates
Measurement: 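CellTiter-Glo ATP signal, scaled to control siRNA as percent viability; sensitisation given as log2 of untreated divided by camptothecin-treated viability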
Direction: log2 vehicle/camptothecin viability: higher = stronger sensitisation to camptothecin
Active means: 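Each gene scored by redundant siRNA activity (RSA) over its individual siRNA ratios; a gene is called active at p < 0.001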

With knock-down of MORN4 (MORN repeat containing 4) [SID164565641], the record shows log2 vehicle/camptothecin viability -0.323. After knock-down of MORN4 (MORN repeat containing 4) [SID164565642], the screen gave log2 vehicle/camptothecin viability 0.0224. For MORN4 (MORN repeat containing 4) [SID164565643] the deposit lists log2 vehicle/camptothecin viability 0.0257. NR1D2 (nuclear receptor subfamily 1 group D member 2) [SID164407806] scored log2 vehicle/camptothecin viability -0.112. NR1D2 (nuclear receptor subfamily 1 group D member 2) [SID164407807] gave log2 vehicle/camptothecin viability -0.23. NR1D2 (nuclear receptor subfamily 1 group D member 2) [SID164407810] scored log2 vehicle/camptothecin viability 0.198.

Silencing of NR1D2 (nuclear receptor subfamily 1 group D member 2) [SID164407811] resulted in: log2 vehicle/camptothecin viability -0.191. ALAD (aminolevulinate dehydratase) [SID164352917] gave log2 vehicle/camptothecin viability -0.445. After knock-down of ALAD (aminolevulinate dehydratase) [SID164352918] the results were log2 vehicle/camptothecin viability -0.114. ALAD (aminolevulinate dehydratase) [SID164352920] scored log2 vehicle/camptothecin viability 0.112. For ALAD (aminolevulinate dehydratase) [SID164352921], the values are log2 vehicle/camptothecin viability -0.257. Knock-down of EFNB2 (ephrin B2) [SID164362796] came out at: log2 vehicle/camptothecin viability 0.0287.

For EFNB2 (ephrin B2) [SID164362797] the deposit lists log2 vehicle/camptothecin viability -0.418. For EFNB2 (ephrin B2) [SID164362798] the deposit lists log2 vehicle/camptothecin viability -0.0968. EFNB2 (ephrin B2) [SID164362799] scored log2 vehicle/camptothecin viability 0.0103. ERBB3 (erb-b2 receptor tyrosine kinase 3) [SID164363605] scored log2 vehicle/camptothecin viability -0.468. ERBB3 (erb-b2 receptor tyrosine kinase 3) [SID164363607] scored log2 vehicle/camptothecin viability -0.229. With knock-down of ERBB3 (erb-b2 receptor tyrosine kinase 3) [SID164363609], the record shows log2 vehicle/camptothecin viability -0.144.

After knock-down of ERBB3 (erb-b2 receptor tyrosine kinase 3) [SID164363610], the record shows log2 vehicle/camptothecin viability 0.118. ERBB3 (erb-b2 receptor tyrosine kinase 3) [SID164363611] gave log2 vehicle/camptothecin viability -0.302. With knock-down of ERBB3 (erb-b2 receptor tyrosine kinase 3) [SID164363613] the results were log2 vehicle/camptothecin viability -0.249. ERBB3 (erb-b2 receptor tyrosine kinase 3) [SID164363614] scored log2 vehicle/camptothecin viability -0.268. ERBB3 (erb-b2 receptor tyrosine kinase 3) [SID164363615] scored log2 vehicle/camptothecin viability -0.245. With knock-down of KCNG1 [SID164372404], the screen gave log2 vehicle/camptothecin viability -0.464.

For KCNG1 [SID164372405], the entry reads log2 vehicle/camptothecin viability -0.762. Depletion of KCNG1 [SID164372408] came out at: log2 vehicle/camptothecin viability -0.3. Against KCNG1 [SID164372409], the entry reads log2 vehicle/camptothecin viability -0.665. XPO7 (exportin 7) [SID164445204] scored log2 vehicle/camptothecin viability -0.12. For XPO7 (exportin 7) [SID164445205] the deposit lists log2 vehicle/camptothecin viability 0.08. Knock-down of XPO7 (exportin 7) [SID164445207] came out at: log2 vehicle/camptothecin viability -0.33.

With knock-down of XPO7 (exportin 7) [SID164445208] the results were log2 vehicle/camptothecin viability 0.0625. Silencing of BDNF (brain derived neurotrophic factor) [SID164355237] gave: log2 vehicle/camptothecin viability -0.167. With knock-down of BDNF (brain derived neurotrophic factor) [SID164355241], the record shows log2 vehicle/camptothecin viability -0.467. Depletion of BDNF (brain derived neurotrophic factor) [SID164355244] gave: log2 vehicle/camptothecin viability 0.115. For BDNF (brain derived neurotrophic factor) [SID164355247], the values are log2 vehicle/camptothecin viability -0.124. For ARID4A (AT-rich interaction domain 4A) [SID164384799], the entry reads log2 vehicle/camptothecin viability -0.0419.

After knock-down of ARID4A (AT-rich interaction domain 4A) [SID164384800], the screen gave log2 vehicle/camptothecin viability 0.42. For ARID4A (AT-rich interaction domain 4A) [SID164384802], the entry reads log2 vehicle/camptothecin viability -0.302. ARID4A (AT-rich interaction domain 4A) [SID164384803] scored log2 vehicle/camptothecin viability -0.548. With knock-down of OR12D3 (olfactory receptor family 12 subfamily D member 3) [SID164539190], the screen gave log2 vehicle/camptothecin viability 0.209. Depletion of OR12D3 (olfactory receptor family 12 subfamily D member 3) [SID164539191] came out at: log2 vehicle/camptothecin viability 0.0813. With knock-down of OR12D3 (olfactory receptor family 12 subfamily D member 3) [SID164539196], the record shows log2 vehicle/camptothecin viability -0.17.

With knock-down of OR12D3 (olfactory receptor family 12 subfamily D member 3) [SID164539197], the record shows log2 vehicle/camptothecin viability -0.148. For POLD1 (DNA polymerase delta 1, catalytic subunit) [SID164381572], the values are log2 vehicle/camptothecin viability -0.0318. POLD1 (DNA polymerase delta 1, catalytic subunit) [SID164381573] showed log2 vehicle/camptothecin viability 0.124. For POLD1 (DNA polymerase delta 1, catalytic subunit) [SID164381574] the deposit lists log2 vehicle/camptothecin viability -0.361. After knock-down of POLD1 (DNA polymerase delta 1, catalytic subunit) [SID164381576], the screen gave log2 vehicle/camptothecin viability 0.113.
